PubChem BioAssay AID1224830 – NIAID, 2016

Aim: 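Regulators of TLR4 signalling towards TNF-alpha in macrophage-like cells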 (primary screen)
System: human THP-1 monocytic leukaemia cells, TNF dual-luciferase reporter clone, PMA-differentiated to macrophage-like cells
Reagents: siRNA pool against human genes, 50 nM
Timing: LPS for 4 h, given about 3 days after siRNA transfection
Treatment: bacterial LPS (TLR4 ligand), 10 ng/ml
Detection: 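Ratio of firefly to renilla light, scaled to the plate median and expressed as a robust z-score per replicate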
Reading the numbers: TNF reporter robust z-score: higher = stronger TNF reporter response to LPS
Call rule: 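Each well counts as active if its z-score is over 2.8 or under -1.5; controls are left without a call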
The whole screen tested about 18,000 reagents; shown is an unselected part. About 2,900 of all reagents (16%) were called active. 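Calls are made per well; low scores hint the gene aids the LPS response, high scores that it dampens it.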 Repeated entries: four replicate wells of each siRNA pool.

Target gene	TNF reporter robust z-score	Call
GNLY (granulysin)	-0.77	inactive
GNLY (granulysin)	0.44	inactive
GNLY (granulysin)	0.52	inactive
GNLY (granulysin)	0.05	inactive
GPANK1 (G-patch domain and ankyrin repeats 1)	0.22	inactive
GPANK1 (G-patch domain and ankyrin repeats 1)	2.23	inactive
GPANK1 (G-patch domain and ankyrin repeats 1)	0.84	inactive
GPANK1 (G-patch domain and ankyrin repeats 1)	0.43	inactive
RBM24 (RNA binding motif protein 24)	-0.67	inactive
RBM24 (RNA binding motif protein 24)	-0.24	inactive
RBM24 (RNA binding motif protein 24)	-0.95	inactive
RBM24 (RNA binding motif protein 24)	-0.75	inactive
EPHA8 (EPH receptor A8)	1.07	inactive
EPHA8 (EPH receptor A8)	0.92	inactive
EPHA8 (EPH receptor A8)	0.58	inactive
EPHA8 (EPH receptor A8)	0.87	inactive
SCML1 (Scm polycomb group protein like 1)	1.62	inactive
SCML1 (Scm polycomb group protein like 1)	0.53	inactive
SCML1 (Scm polycomb group protein like 1)	0.45	inactive
SCML1 (Scm polycomb group protein like 1)	0.17	inactive
VAPA (VAMP associated protein A)	0.56	inactive
VAPA (VAMP associated protein A)	-0.21	inactive
VAPA (VAMP associated protein A)	-0.54	inactive
VAPA (VAMP associated protein A)	-0.27	inactive
LAMTOR4 (late endosomal/lysosomal adaptor, MAPK and MTOR activator 4)	0.73	inactive
LAMTOR4 (late endosomal/lysosomal adaptor, MAPK and MTOR activator 4)	0.91	inactive
LAMTOR4 (late endosomal/lysosomal adaptor, MAPK and MTOR activator 4)	0.99	inactive
LAMTOR4 (late endosomal/lysosomal adaptor, MAPK and MTOR activator 4)	0.88	inactive
TEX30 (testis expressed 30)	-0.03	inactive
TEX30 (testis expressed 30)	-1.04	inactive
TEX30 (testis expressed 30)	-1.25	inactive
TEX30 (testis expressed 30)	-1.05	inactive
TEX30 (testis expressed 30)	2.45	inactive
TEX30 (testis expressed 30)	0.75	inactive
TEX30 (testis expressed 30)	1.07	inactive
TEX30 (testis expressed 30)	-0.31	inactive
SKP1 (S-phase kinase associated protein 1)	-0.66	inactive
SKP1 (S-phase kinase associated protein 1)	-0.2	inactive
SKP1 (S-phase kinase associated protein 1)	-0.73	inactive
SKP1 (S-phase kinase associated protein 1)	0.3	inactive
FLCN (folliculin)	-1.15	inactive
FLCN (folliculin)	-0.81	inactive
FLCN (folliculin)	-0.51	inactive
FLCN (folliculin)	0.46	inactive
IGSF22 (immunoglobulin superfamily member 22)	-0.96	inactive
IGSF22 (immunoglobulin superfamily member 22)	-1.51	active
IGSF22 (immunoglobulin superfamily member 22)	-1.06	inactive
IGSF22 (immunoglobulin superfamily member 22)	-0.46	inactive
PLD4 (phospholipase D family member 4)	-1.07	inactive
PLD4 (phospholipase D family member 4)	-0.94	inactive
PLD4 (phospholipase D family member 4)	-0.83	inactive
PLD4 (phospholipase D family member 4)	-0.85	inactive
NF1 (neurofibromin 1)	-0.6	inactive
NF1 (neurofibromin 1)	-0.89	inactive
NF1 (neurofibromin 1)	-0.42	inactive
NF1 (neurofibromin 1)	0.1	inactive
LMO7 (LIM domain 7)	3.73	active
LMO7 (LIM domain 7)	0.53	inactive
LMO7 (LIM domain 7)	-0.72	inactive
LMO7 (LIM domain 7)	1.44	inactive
OR10H4 (olfactory receptor family 10 subfamily H member 4)	-0.58	inactive
OR10H4 (olfactory receptor family 10 subfamily H member 4)	-0.69	inactive
OR10H4 (olfactory receptor family 10 subfamily H member 4)	-1.77	active
OR10H4 (olfactory receptor family 10 subfamily H member 4)	-0.5	inactive
PCGF1 (polycomb group ring finger 1)	0.82	inactive
PCGF1 (polycomb group ring finger 1)	3.31	active
PCGF1 (polycomb group ring finger 1)	1.24	inactive
PCGF1 (polycomb group ring finger 1)	1.32	inactive
PARG (poly(ADP-ribose) glycohydrolase)	-0.2	inactive
PARG (poly(ADP-ribose) glycohydrolase)	-0.28	inactive
PARG (poly(ADP-ribose) glycohydrolase)	-1.07	inactive
PARG (poly(ADP-ribose) glycohydrolase)	1.18	inactive
RIGI (RNA sensor RIG-I)	-0.31	inactive
RIGI (RNA sensor RIG-I)	-0.01	inactive
RIGI (RNA sensor RIG-I)	-0.6	inactive
RIGI (RNA sensor RIG-I)	-0.14	inactive
UBXN2B (UBX domain protein 2B)	0.2	inactive
UBXN2B (UBX domain protein 2B)	-0.87	inactive
UBXN2B (UBX domain protein 2B)	-0.95	inactive
UBXN2B (UBX domain protein 2B)	-0.79	inactive
DEPTOR (DEP domain containing MTOR interacting protein)	0.21	inactive
DEPTOR (DEP domain containing MTOR interacting protein)	0.83	inactive
DEPTOR (DEP domain containing MTOR interacting protein)	0.22	inactive
DEPTOR (DEP domain containing MTOR interacting protein)	1.01	inactive
PRRC2C (proline rich coiled-coil 2C)	1.04	inactive
PRRC2C (proline rich coiled-coil 2C)	1.11	inactive
PRRC2C (proline rich coiled-coil 2C)	0.86	inactive
PRRC2C (proline rich coiled-coil 2C)	1.3	inactive
PM20D2 (peptidase M20 domain containing 2)	0.04	inactive
PM20D2 (peptidase M20 domain containing 2)	0.25	inactive
PM20D2 (peptidase M20 domain containing 2)	0.05	inactive
PM20D2 (peptidase M20 domain containing 2)	0.24	inactive
PRKAG2 (protein kinase AMP-activated non-catalytic subunit gamma 2)	0.02	inactive
PRKAG2 (protein kinase AMP-activated non-catalytic subunit gamma 2)	-0.24	inactive
PRKAG2 (protein kinase AMP-activated non-catalytic subunit gamma 2)	0.38	inactive
PRKAG2 (protein kinase AMP-activated non-catalytic subunit gamma 2)	2.62	inactive
NUDT3 (nudix hydrolase 3)	-0.7	inactive
NUDT3 (nudix hydrolase 3)	1.26	inactive
NUDT3 (nudix hydrolase 3)	0.58	inactive
NUDT3 (nudix hydrolase 3)	-0.74	inactive
IER2 (immediate early response 2)	0.13	inactive
IER2 (immediate early response 2)	0.79	inactive
IER2 (immediate early response 2)	0.74	inactive
IER2 (immediate early response 2)	0.49	inactive
CEP20 (centrosomal protein 20)	-1.36	inactive
CEP20 (centrosomal protein 20)	-1.96	active
CEP20 (centrosomal protein 20)	-1.59	active
CEP20 (centrosomal protein 20)	-1.14	inactive
DNAJC5 (DnaJ heat shock protein family (Hsp40) member C5)	-0.03	inactive
DNAJC5 (DnaJ heat shock protein family (Hsp40) member C5)	-0.9	inactive
DNAJC5 (DnaJ heat shock protein family (Hsp40) member C5)	-0.74	inactive
DNAJC5 (DnaJ heat shock protein family (Hsp40) member C5)	0.72	inactive
